Source: ChEMBL document CHEMBL4316593 (Eur J Med Chem, 2019)
This continues a long series; more values of the same kind are listed elsewhere.

Assays:
Format in all cases: cell-based
Conditions in all cases: U-87MG ATCC
[1] = Inhibition of RTK/PI3K/AKT/mTOR signaling in human U87 cells assessed as down regulation of MORC3 gene expression at cytotoxic IC50 measured after 48 hrs relative to control
[2] = Inhibition of RTK/PI3K/AKT/mTOR signaling in human U87 cells assessed as up regulation of glutamyl-tRNA synthetase 2, mitochondrial gene expression at cytotoxic IC50 measured after 48 hrs relative to control
[3] = Inhibition of RTK/PI3K/AKT/mTOR signaling in human U87 cells assessed as up regulation of coatomer protein complex subunit zeta 1 gene expression at cytotoxic IC50 measured after 48 hrs relative to control
[4] = Inhibition of RTK/PI3K/AKT/mTOR signaling in human U87 cells assessed as up regulation of fatty acid desaturase 3 gene expression at cytotoxic IC50 measured after 48 hrs relative to control
[5] = Inhibition of RTK/PI3K/AKT/mTOR signaling in human U87 cells assessed as up regulation of kaptin, actin binding protein gene expression at cytotoxic IC50 measured after 48 hrs relative to control
[6] = Inhibition of RTK/PI3K/AKT/mTOR signaling in human U87 cells assessed as up regulation of AK4 gene expression at cytotoxic IC50 measured after 48 hrs relative to control
[7] = Inhibition of RTK/PI3K/AKT/mTOR signaling in human U87 cells assessed as up regulation of protein phosphatase 1 regulatory inhibitor subunit 14B gene expression at cytotoxic IC50 measured after 48 hrs relative to control
[8] = Inhibition of RTK/PI3K/AKT/mTOR signaling in human U87 cells assessed as down regulation of MCM5 gene expression at cytotoxic IC50 measured after 48 hrs relative to control
[9] = Inhibition of RTK/PI3K/AKT/mTOR signaling in human U87 cells assessed as down regulation of CBLL1 gene expression at cytotoxic IC50 measured after 48 hrs relative to control
[10] = Inhibition of RTK/PI3K/AKT/mTOR signaling in human U87 cells assessed as up regulation of SH3 domain containing kinase binding protein 1 gene expression at cytotoxic IC50 measured after 48 hrs relative to control
[11] = Inhibition of RTK/PI3K/AKT/mTOR signaling in human U87 cells assessed as down regulation of POLR3C gene expression at cytotoxic IC50 measured after 48 hrs relative to control
[12] = Inhibition of RTK/PI3K/AKT/mTOR signaling in human U87 cells assessed as up regulation of McKusick-Kaufman syndrome gene expression at cytotoxic IC50 measured after 48 hrs relative to control
[13] = Inhibition of RTK/PI3K/AKT/mTOR signaling in human U87 cells assessed as up regulation of Jun dimerization protein 2 gene expression at cytotoxic IC50 measured after 48 hrs relative to control
[14] = Inhibition of RTK/PI3K/AKT/mTOR signaling in human U87 cells assessed as down regulation of CEP170B gene expression at cytotoxic IC50 measured after 48 hrs relative to control
[15] = Inhibition of RTK/PI3K/AKT/mTOR signaling in human U87 cells assessed as down regulation of ACAA1 gene expression at cytotoxic IC50 measured after 48 hrs relative to control
[16] = Inhibition of RTK/PI3K/AKT/mTOR signaling in human U87 cells assessed as up regulation of DNAJC22 gene expression at cytotoxic IC50 measured after 48 hrs relative to control
[17] = Inhibition of RTK/PI3K/AKT/mTOR signaling in human U87 cells assessed as down regulation of CASC3 gene expression at cytotoxic IC50 measured after 48 hrs relative to control
[18] = Inhibition of RTK/PI3K/AKT/mTOR signaling in human U87 cells assessed as up regulation of cytochrome b gene expression at cytotoxic IC50 measured after 48 hrs relative to control
[19] = Inhibition of RTK/PI3K/AKT/mTOR signaling in human U87 cells assessed as down regulation of PSMB1 gene expression at cytotoxic IC50 measured after 48 hrs relative to control
[20] = Inhibition of RTK/PI3K/AKT/mTOR signaling in human U87 cells assessed as up regulation of alanyl-tRNA synthetase gene expression at cytotoxic IC50 measured after 48 hrs relative to control
[21] = Inhibition of RTK/PI3K/AKT/mTOR signaling in human U87 cells assessed as up regulation of HK2 gene expression at cytotoxic IC50 measured after 48 hrs relative to control
[22] = Inhibition of RTK/PI3K/AKT/mTOR signaling in human U87 cells assessed as up regulation of AU RNA binding methylglutaconyl-CoA hydratase gene expression at cytotoxic IC50 measured after 48 hrs relative to control
[23] = Inhibition of RTK/PI3K/AKT/mTOR signaling in human U87 cells assessed as down regulation of AGFG1 gene expression at cytotoxic IC50 measured after 48 hrs relative to control
[24] = Inhibition of RTK/PI3K/AKT/mTOR signaling in human U87 cells assessed as up regulation of glycogen phosphorylase B gene expression at cytotoxic IC50 measured after 48 hrs relative to control
[25] = Inhibition of RTK/PI3K/AKT/mTOR signaling in human U87 cells assessed as up regulation of UNC13D gene expression at cytotoxic IC50 measured after 48 hrs relative to control
[26] = Inhibition of RTK/PI3K/AKT/mTOR signaling in human U87 cells assessed as up regulation of EFNA3 gene expression at cytotoxic IC50 measured after 48 hrs relative to control
[27] = Inhibition of RTK/PI3K/AKT/mTOR signaling in human U87 cells assessed as down regulation of SFPQ gene expression at cytotoxic IC50 measured after 48 hrs relative to control
[28] = Inhibition of RTK/PI3K/AKT/mTOR signaling in human U87 cells assessed as down regulation of INTS12 gene expression at cytotoxic IC50 measured after 48 hrs relative to control
[29] = Inhibition of RTK/PI3K/AKT/mTOR signaling in human U87 cells assessed as down regulation of PARVA gene expression at cytotoxic IC50 measured after 48 hrs relative to control
[30] = Inhibition of RTK/PI3K/AKT/mTOR signaling in human U87 cells assessed as down regulation of SP2 gene expression at cytotoxic IC50 measured after 48 hrs relative to control
[31] = Inhibition of RTK/PI3K/AKT/mTOR signaling in human U87 cells assessed as up regulation of RPL7A gene expression at cytotoxic IC50 measured after 48 hrs relative to control
[32] = Inhibition of RTK/PI3K/AKT/mTOR signaling in human U87 cells assessed as up regulation of PIP5KL1 gene expression at cytotoxic IC50 measured after 48 hrs relative to control

## CC(=O)C(=NNc1ccccc1C#N)C(C)=O
[1]
  log2FC: -0.675
[2]
  log2FC: 0.716
[3]
  log2FC: 0.765
[4]
  log2FC: 1.2
[5]
  log2FC: 1.2
[6]
  log2FC: 1.91
[7]
  log2FC: 0.883
[8]
  log2FC: -1.58
[9]
  log2FC: -0.819
[10]
  log2FC: 0.849
[11]
  log2FC: -0.921
[12]
  log2FC: 1.07
[13]
  log2FC: 1.46
[14]
  log2FC: -0.605
[15]
  log2FC: -1.69
[16]
  log2FC: 1.97
[17]
  log2FC: -0.398
[18]
  log2FC: 0.891
[19]
  log2FC: -0.654
[20]
  log2FC: 0.955
[21]
  log2FC: 2.3
[22]
  log2FC: 0.835
[23]
  log2FC: -0.617
[24]
  log2FC: 0.835
[25]
  log2FC: 2.34
[26]
  log2FC: 1.7
[27]
  log2FC: -0.521
[28]
  log2FC: -1.23
[29]
  log2FC: -1.13
[30]
  log2FC: -0.737
[31]
  log2FC: 0.493
[32]
  log2FC: 2.48
